{
  "sequences": {"note": "The chains behind the UniProt entries cited, without tags or fusion partners.", "UniProt P53350, whole entry, looked up": "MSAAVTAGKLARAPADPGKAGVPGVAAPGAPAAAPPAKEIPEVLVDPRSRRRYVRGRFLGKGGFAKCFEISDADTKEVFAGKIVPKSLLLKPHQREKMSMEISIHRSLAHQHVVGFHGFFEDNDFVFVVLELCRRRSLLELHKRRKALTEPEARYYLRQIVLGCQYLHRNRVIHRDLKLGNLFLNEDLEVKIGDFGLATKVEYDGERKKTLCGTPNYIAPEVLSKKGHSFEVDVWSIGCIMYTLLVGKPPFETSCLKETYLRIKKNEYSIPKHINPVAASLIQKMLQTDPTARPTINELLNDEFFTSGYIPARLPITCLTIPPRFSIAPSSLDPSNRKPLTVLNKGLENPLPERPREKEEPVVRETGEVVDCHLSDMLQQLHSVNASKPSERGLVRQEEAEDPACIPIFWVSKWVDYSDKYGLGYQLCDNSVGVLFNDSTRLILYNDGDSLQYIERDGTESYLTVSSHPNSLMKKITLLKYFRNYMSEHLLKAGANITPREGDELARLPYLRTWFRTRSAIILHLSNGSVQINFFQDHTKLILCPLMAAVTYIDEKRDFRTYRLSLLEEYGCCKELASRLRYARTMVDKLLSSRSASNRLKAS"},
  "source": "PubChem BioAssay AID720504",
  "about": "(National Center for Advancing Translational Sciences (NCATS), 2013)",
  "note": "The whole screen tested about 360,000 compounds, of which about 10,000 (2.8%) were called active. The inconclusive results got no clear call from the source; some entries with a clear call stand among them for comparison. The call rests on the fitted dose curve; in most records, active means well fitted inhibition curve with a large enough effect; inconclusive means small, poorly fitted or top-dose-only effect; inactive means flat fitted curve, though single readings scatter. Where the call is inconclusive, the potency comes from a doubtful curve fit. On the % scale 0 is the no-effect control and ±100 the full control effect; potency means the concentration at half of the fitted maximal effect.",
  "data": [
    {"target": "Serine/threonine-protein kinase PLK1 (Homo sapiens) (UniProt P53350)", "assay": "qHTS for Inhibitors of PLK1-PDB (polo-like kinase 1 - polo-box domain): Primary Screen; further: nearly all actives have a fitted effect of over 65% in size; on max response, negative = inhibition: series mostly up to about 57 µM", "conditions": "Plk1 PBD binding of FITC phosphopeptide, fluorescence polarization", "values": [
      {"smiles": "CCCc1[nH]nc2c1C(c1ccc(OC(=O)N3CCOCC3)c(OC)c1)C(C#N)=C(N)O2", "note": "(configuration not stated)", "Potency": "inconclusive: 37.7 µM [inhibitor, single point]"},
      {"smiles": "CSc1nc(-c2ccc(Cl)cc2)nn1C(=O)c1ccccc1", "Potency": "inconclusive: 1.68 µM [inhibitor, full curve]"},
      {"smiles": "Cc1cccc(NC(=O)c2ccc(NS(=O)(=O)c3cccc4cccnc34)cc2)c1", "max response, negative = inhibition": "inactive: 6.88%"},
      {"smiles": "Cc1cccc(NC(=O)/C(C#N)=C/c2cccc([N+](=O)[O-])c2)n1", "Potency": "active: 26.7 µM"},
      {"smiles": "O=C(CSc1nnc(SCc2ccccc2)s1)N/N=C/C=C\\c1ccco1", "Potency": "inconclusive: 29.9 µM [inhibitor, partial curve]"},
      {"smiles": "O=C(c1ccc2ccccc2n1)N1CCN(c2ccccc2)CC1", "max response, negative = inhibition": "inactive: -2.89%"},
      {"smiles": "FC(F)C(F)(F)Oc1cccc(Nc2nccn3c(-c4cccc5ccccc45)cnc23)c1", "max response, negative = inhibition": "inactive: 1.8%"},
      {"smiles": "Cc1ccc(N(C(C)C(=O)O)S(=O)(=O)c2c(C)[nH]c(=O)[nH]c2=O)cc1", "note": "(configuration not stated)", "Potency": "inconclusive: 26.7 µM [inhibitor, single point]"},
      {"smiles": "O=C1Nc2ccc(S(=O)(=O)NCC3CCCO3)c3cccc1c23", "note": "(configuration not stated)", "Potency": "inconclusive: 5.32 µM [inhibitor, single point]"},
      {"smiles": "O=C(O)C(=O)Nc1nc(-c2ccc3c(c2)OCCO3)cs1", "max response, negative = inhibition": "inactive: -4.06%"},
      {"smiles": "COc1cnc(-c2ccccn2)nc1Oc1ccccc1Cl", "max response, negative = inhibition": "inactive: 3.04%"},
      {"smiles": "Cc1ccc(S(=O)(=O)Cc2ccc(C(=O)OCc3ccccc3)cc2)cc1", "max response, negative = inhibition": "inactive: -2.48%"},
      {"smiles": "S=C1NC2=C(CCC/C2=C\\c2ccc(Cl)cc2)C(c2ccc(Cl)cc2)N1", "note": "(configuration not stated)", "Potency": "inconclusive: 7.52 µM [inhibitor, partial curve]"},
      {"smiles": "O=C(O)C1CCCCC1C(=O)NCc1ccccn1", "note": "(configuration not stated)", "max response, negative = inhibition": "inactive: -7.29%"},
      {"smiles": "COC(=O)c1c(-c2cccnc2)csc1NC(=O)c1cc(C)on1", "Potency": "active: 6.7 µM"},
      {"smiles": "CCCCC(=O)Nc1sc2c(c1C(N)=O)CCC2", "Potency": "inconclusive: 37.7 µM [inhibitor, single point]"},
      {"smiles": "CNC(=O)c1cc(Nc2nnc(C)c3ccccc23)ccc1OC", "Potency": "inconclusive: 37.7 µM [inhibitor, single point]"},
      {"smiles": "O=C(O)C1CSC(c2ccc(O)c([N+](=O)[O-])c2)N1", "note": "(configuration not stated)", "max response, negative = inhibition": "inactive: -12.4%"},
      {"smiles": "Cc1[nH]c(C)c(S(=O)(=O)N(Cc2ccccc2)C(C)(C)C)c1C(=O)N1CCCC1", "Potency": "inconclusive: 8.44 µM [inhibitor, single point]"},
      {"smiles": "O=C(NCc1ccco1)c1cc(-c2cccnc2)nc2ccc(Cl)cc12", "Potency": "inconclusive: 29.9 µM [inhibitor, single point]"},
      {"smiles": "CC(=O)Nc1ccc(SC(C)C(=O)NC(N)=O)cc1", "note": "(configuration not stated)", "Potency": "active: 23.8 µM"},
      {"smiles": "Fc1ccc(/C=N/NC(=S)Nc2cccnc2)cc1", "Potency": "inconclusive: 23.8 µM [inhibitor, partial curve]"},
      {"smiles": "COC(=O)c1ccc(OCC(O)CN2CCc3cc(OC)c(OC)cc3C2c2ccccc2)cc1", "note": "(configuration not stated)", "max response, negative = inhibition": "inactive: -1.73%"},
      {"smiles": "CC(Oc1cc2oc(=O)c3c(c2cc1Cl)CCC3)C(=O)NCCCN1CCOCC1", "note": "(configuration not stated)", "max response, negative = inhibition": "inactive: 0.0833%"},
      {"smiles": "O=C1CN(C(=O)COC(=O)c2ccc(Br)o2)c2ccccc2N1", "max response, negative = inhibition": "inactive: -3.98%"},
      {"smiles": "N#CC1(C#N)CC(C=O)=C(N)C1(C#N)CC(=O)C12CC3CC(CC(C3)C1)C2", "note": "(configuration not stated)", "Potency": "inconclusive: 26.7 µM [inhibitor, single point]"},
      {"smiles": "Fc1cccc2sc(Nc3nnc(-c4ccccc4)o3)nc12", "Potency": "inconclusive: 26.7 µM [inhibitor, single point]"},
      {"smiles": "CC(C)(C)Cc1nnc(NC(=O)Cc2cccs2)s1", "Potency": "active: 18.9 µM"},
      {"smiles": "CC(=O)c1cccc(NCC(=O)c2ccc(C)c([N+](=O)[O-])c2)c1", "Potency": "inconclusive: 21.2 µM [inhibitor, single point]"},
      {"smiles": "COc1ccc(NC(=O)Nc2nnc(-c3ccco3)s2)cc1", "max response, negative = inhibition": "inconclusive: -40.3% [inhibitor]"},
      {"smiles": "CCN(CC)c1ccc2cc(S(=O)(=O)c3ccc(C)cc3)c(=O)oc2c1", "Potency": "inconclusive: 37.7 µM [inhibitor, single point]"},
      {"smiles": "O=C(O)c1ccc(Cl)c(S(=O)(=O)Nc2ccccc2C(=O)Nc2ccc(Cl)cc2)c1", "Potency": "inconclusive: 26.7 µM [inhibitor, partial curve]"},
      {"smiles": "Oc1ccc(C2=Nn3c(nnc3-c3ccco3)SC2)cc1O", "Potency": "inconclusive: 29.9 µM [inhibitor, single point]"},
      {"smiles": "CCOCc1nnc(NC(=O)c2c(OC)cccc2OC)s1", "Potency": "inconclusive: 18.9 µM [inhibitor, partial curve]"},
      {"smiles": "CCOc1ccc(N2C=Nc3ccc(OCC)cc3C2)cc1", "max response, negative = inhibition": "inactive: -7.9%"},
      {"smiles": "CCN(CC)S(=O)(=O)c1cccc(C(=O)Nc2nnc(C)s2)c1", "max response, negative = inhibition": "inactive: -0.345%"},
      {"smiles": "CCOC(=O)N1CCC(Nc2nc3ccccc3nc2NS(=O)(=O)c2ccc(Cl)cc2)CC1", "Potency": "inconclusive: 21.2 µM [inhibitor, single point]"},
      {"smiles": "O=S1(=O)CC=C(CSC(=S)NC2CCS(=O)(=O)C2)C1", "note": "(configuration not stated)", "Potency": "inconclusive: 21.2 µM [inhibitor, partial curve]"},
      {"smiles": "CCCCCCCNc1nc(Cl)nc(NCCO)n1", "Potency": "inconclusive: 29.9 µM [inhibitor, single point]"},
      {"smiles": "COc1ccc2[nH]c(=O)c(C(=O)O)cc2c1", "max response, negative = inhibition": "inactive: -9.15%"},
      {"smiles": "C#CC(CCN1CCCCC1)(OC)c1ccccc1", "note": "(configuration not stated)", "max response, negative = inhibition": "inactive: -7.33%"},
      {"smiles": "Cc1ccc2c(c1)C(=O)C(=O)N2CCCOc1ccccc1C", "Potency": "inconclusive: 37.7 µM [inhibitor, single point]"},
      {"smiles": "COc1ccc2c(=O)cc(-c3cccnc3)oc2c1OC", "Potency": "inconclusive: 29.9 µM [inhibitor, single point]"},
      {"smiles": "CCOC(=O)c1ccc(NS(=O)(=O)c2ccc3[nH]c(=O)[nH]c3c2)cc1", "Potency": "active: 11.9 µM"},
      {"smiles": "CCCC(C)C(=O)Nc1ccncc1", "note": "(configuration not stated)", "max response, negative = inhibition": "inconclusive: -30.5% [inhibitor]"},
      {"smiles": "Cc1ccc(Cc2c[nH]c(=S)s2)cc1", "Potency": "active: 6.7 µM"},
      {"smiles": "CCc1ccc(NC(=O)/C(C#N)=C/c2cn(CC(=O)O)c3ccccc23)cc1", "Potency": "inconclusive: 21.2 µM [inhibitor, partial curve]"},
      {"smiles": "Cc1nnc2n1N=C(c1ccc3c(c1)NC(=O)CO3)CS2", "Potency": "inconclusive: 33.6 µM [inhibitor, single point]"},
      {"smiles": "CCOC(=O)C1=C(C)N(C)C(=O)C1CC(=O)O", "note": "(configuration not stated)", "Potency": "inconclusive: 23.8 µM [inhibitor, single point]"},
      {"smiles": "CC(=O)C1=C(N2CCCCC2)CCC1=O", "Potency": "inconclusive: 23.8 µM [inhibitor, single point]"},
      {"smiles": "Cc1ccc(N(CC(=O)NCc2ccc(F)cc2)C(=O)CCC(=O)Nc2ccccn2)cc1C", "Potency": "inconclusive: 26.7 µM [inhibitor, single point]"},
      {"smiles": "CCCCNC(=O)C12CCC(C)(C(=O)C1Br)C2(C)C", "note": "(configuration not stated)", "Potency": "inconclusive: 33.6 µM [inhibitor, partial curve]"},
      {"smiles": "N#CCSc1nc2c(c(=O)n1Cc1ccco1)C1(CCCC1)Cc1ccccc1-2", "Potency": "inconclusive: 26.7 µM [inhibitor, single point]"},
      {"smiles": "CCOc1cc2[nH]c(=O)n(CCCN3CCN(c4ccc(OC)cc4)CC3)c(=O)c2cc1OCC", "max response, negative = inhibition": "inactive: 3.99%"},
      {"smiles": "COc1ccccc1CNC(=O)CSC(=S)N1CCCC1", "Potency": "inconclusive: 23.8 µM [inhibitor, partial curve]"},
      {"smiles": "O=C(c1ccco1)N(CCC(c1ccccc1)c1ccco1)Cc1ccccc1", "note": "(configuration not stated)", "max response, negative = inhibition": "inconclusive: -30.1% [inhibitor]"},
      {"smiles": "FC(F)(Cl)c1nnc2ccc(Sc3ccccn3)nn12", "Potency": "active: 21.2 µM"},
      {"smiles": "Cc1ccc(NC(=O)N2CCc3ccccc32)cc1C", "max response, negative = inhibition": "inactive: -9.33%"},
      {"smiles": "N#Cc1cc2c(nc1SCc1ccncc1)CCC2", "Potency": "inconclusive: 26.7 µM [inhibitor, partial curve]"},
      {"smiles": "COc1ccc(/C=C2\\SC(=O)N(CC(=O)NNC(=O)c3ccccc3O)C2=O)cc1", "Potency": "inconclusive: 23.8 µM [inhibitor, single point]"},
      {"smiles": "CC1(Cc2cc(Cl)ccc2C(F)(F)F)C(=O)Nc2cc(F)ccc21", "note": "(configuration not stated)", "max response, negative = inhibition": "inactive: -5.56%"},
      {"smiles": "CC(C)(C)C1=C(C#N)C(c2ccncc2)C(C#N)=C(N)O1", "note": "(configuration not stated)", "Potency": "inconclusive: 21.2 µM [inhibitor, partial curve]"},
      {"smiles": "O=C(c1ccc([N+](=O)[O-])cc1)N(Cc1ccccc1)c1ccccn1", "max response, negative = inhibition": "inactive: -1.36%"},
      {"smiles": "Cc1coc2c1C(=O)C(=O)c1c-2ccc2c1CCCC2(C)C", "Potency": "inconclusive: 26.7 µM [inhibitor, single point]"},
      {"smiles": "Cc1ccc(Sc2c([N+](=O)[O-])c(=O)n(C)c3ccccc23)cc1", "Potency": "inconclusive: 1.68 µM [inhibitor, full curve]"},
      {"smiles": "COc1cccc(NC(=O)N(C)C[C@H]2Oc3cc(C#Cc4ccncc4)ccc3S(=O)(=O)N([C@H](C)CO)C[C@H]2C)c1", "max response, negative = inhibition": "inactive: -5.39%"},
      {"smiles": "CC(C)CN(C(=O)CN(C)C(=O)Cc1c(F)cccc1Cl)c1c(N)n(CC(C)C)c(=O)[nH]c1=O", "max response, negative = inhibition": "inactive: -11.8%"},
      {"smiles": "N#Cc1c(NCCO)nc(NCc2ccccc2)c2c1CCN(Cc1ccccc1)C2", "Potency": "inconclusive: 23.8 µM [inhibitor, single point]"},
      {"smiles": "CC(=O)c1cccc(-n2nnnc2SCC(=O)Nc2cc(C)on2)c1", "max response, negative = inhibition": "inconclusive: -30.7% [inhibitor]"},
      {"smiles": "CNCCCC12CCC(c3ccccc31)c1ccccc12", "Potency": "inconclusive: 26.7 µM [inhibitor, partial curve]"},
      {"smiles": "COC(=O)c1ccc2c(=O)n(Cc3ccc4c(c3)OCO4)c(SCC(=O)N3CCCC3)nc2c1", "Potency": "inconclusive: 29.9 µM [inhibitor, partial curve]"},
      {"smiles": "Cn1c(O)c(N=NC(=O)c2ccccc2O)c2ccccc21", "Potency": "active: 3.36 µM"}
    ]}
  ]
}
